This is an account of results in publication PMC11040665, “Aminothiazolone Inhibitors Disrupt the Protein–RNA Interaction of METTL16 and Modulate the m^6A RNA Modification” (JACS Au, 2024).

Weaker means in comparison with the reference protein, sequence or condition of that experiment. Where a protein sequence is shown, tags need not be part of it.

Data set [1] concerns the target T1, METTL16 MTD (methyltransferase domain) (Homo sapiens) (UniProt Q86W50).
T1 sequence (looked up): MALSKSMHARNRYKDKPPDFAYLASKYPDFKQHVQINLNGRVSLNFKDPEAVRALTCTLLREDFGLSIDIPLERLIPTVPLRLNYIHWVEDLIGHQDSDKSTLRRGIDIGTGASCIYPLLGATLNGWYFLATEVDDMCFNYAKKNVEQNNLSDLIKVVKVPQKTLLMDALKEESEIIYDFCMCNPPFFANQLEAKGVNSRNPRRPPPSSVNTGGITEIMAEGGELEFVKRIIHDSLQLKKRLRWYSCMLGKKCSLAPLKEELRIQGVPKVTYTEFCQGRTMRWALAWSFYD
Briefly: competition FP. The settings on record: vs FAM-MAT2A-hp1, less potent than pre-miR-17-hp; 20 mM HEPES pH 7.5, 50 mM NaCl, 0.05% Tween 20, 0.05 mg/mL BGG, room temperature; EMSA […] native PAGE 0.5x TBE at 4 C; recombinant protein; residues 1-291.

In data set [2] the target is T1, METTL16 MTD (methyltransferase domain) (Homo sapiens). Put plainly: EMSA. The settings on record: 20 mM HEPES pH 7.5, 50 mM NaCl, 0.05% Tween 20, 0.05 mg/mL BGG, room temperature; EMSA […] native PAGE 0.5x TBE at 4 C; recombinant protein; residues 1-291; label: FAM (5'). On the technique in general: A gel shift assay detects complexes by their altered migration in electrophoresis.

For “GUGCAGGUAGAUGAUAUGUGCAUCUACCUGCAC [pre-miR-17-hp bp]”, the binding result in data set [1] is listed as “binds more weakly”.
Turning to UUCUUCUGUGGACUGUG [FAM-GGACU-RNA], in data set [2], the binding result is on record as “binds more weakly”.
